The source holds more than one record for some entries. The other results are left out here. The source may hold further records. Results that share an entry do not match, cause unknown; dose, time, organism, isomer or construct need not be as stated for each record.
Target: AcerOr1 (Apis cerana cerana, UniProt G8HAQ8)
Settings: Sf9 cells expressing AcerOr1, Ca2+ imaging

The chains behind the UniProt entries cited, without tags or fusion partners. Residues count along the entry.
UniProt G8HAQ8, 1-400: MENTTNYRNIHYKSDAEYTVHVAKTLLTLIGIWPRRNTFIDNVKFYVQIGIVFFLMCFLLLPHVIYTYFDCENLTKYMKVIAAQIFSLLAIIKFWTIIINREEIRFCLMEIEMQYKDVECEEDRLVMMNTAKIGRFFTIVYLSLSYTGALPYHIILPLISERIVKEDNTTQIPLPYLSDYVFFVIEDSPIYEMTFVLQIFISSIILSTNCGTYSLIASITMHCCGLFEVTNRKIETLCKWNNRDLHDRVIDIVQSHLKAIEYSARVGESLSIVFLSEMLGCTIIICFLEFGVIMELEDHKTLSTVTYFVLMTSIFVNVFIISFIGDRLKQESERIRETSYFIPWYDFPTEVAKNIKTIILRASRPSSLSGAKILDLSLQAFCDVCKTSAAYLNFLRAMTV

Which EC50 does the source give for `CCc1ccc(NC(=O)CSc2nnc(-c3cccnc3)n2CC)cc1` [VUAA1, N-(4-ethylphenyl)-2-((4-ethyl-5-(3-pyridinyl)-4H-1,2,4-triazol-3-yl)thio) acetamide] here?
Its EC50 is 10^−7 to 10^−8 M and 151 nM.

Reference: PMC6001824, “Expressional and functional interactions of two Apis cerana cerana olfactory receptors” (PeerJ, 2018)
